Source: the supplement of paper PMC10849652
Some of the results follow.

Amino acid sequences for entries named in this document (tags omitted). A change or cut given only in a name is not applied to a line headed by its entry.
UniProt Q09028, whole entry, looked up: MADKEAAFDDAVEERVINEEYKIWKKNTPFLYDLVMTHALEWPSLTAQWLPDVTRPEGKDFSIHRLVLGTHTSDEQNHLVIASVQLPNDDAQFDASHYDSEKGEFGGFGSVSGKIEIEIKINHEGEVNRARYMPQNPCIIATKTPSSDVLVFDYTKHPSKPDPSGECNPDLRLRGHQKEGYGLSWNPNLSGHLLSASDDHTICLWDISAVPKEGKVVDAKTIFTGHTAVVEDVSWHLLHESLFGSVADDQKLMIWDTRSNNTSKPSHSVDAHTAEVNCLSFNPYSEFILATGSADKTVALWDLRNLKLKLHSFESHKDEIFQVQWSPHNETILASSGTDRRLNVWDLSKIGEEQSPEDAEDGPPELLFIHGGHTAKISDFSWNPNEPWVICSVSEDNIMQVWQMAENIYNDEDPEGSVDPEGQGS
UniProt Q96EV2: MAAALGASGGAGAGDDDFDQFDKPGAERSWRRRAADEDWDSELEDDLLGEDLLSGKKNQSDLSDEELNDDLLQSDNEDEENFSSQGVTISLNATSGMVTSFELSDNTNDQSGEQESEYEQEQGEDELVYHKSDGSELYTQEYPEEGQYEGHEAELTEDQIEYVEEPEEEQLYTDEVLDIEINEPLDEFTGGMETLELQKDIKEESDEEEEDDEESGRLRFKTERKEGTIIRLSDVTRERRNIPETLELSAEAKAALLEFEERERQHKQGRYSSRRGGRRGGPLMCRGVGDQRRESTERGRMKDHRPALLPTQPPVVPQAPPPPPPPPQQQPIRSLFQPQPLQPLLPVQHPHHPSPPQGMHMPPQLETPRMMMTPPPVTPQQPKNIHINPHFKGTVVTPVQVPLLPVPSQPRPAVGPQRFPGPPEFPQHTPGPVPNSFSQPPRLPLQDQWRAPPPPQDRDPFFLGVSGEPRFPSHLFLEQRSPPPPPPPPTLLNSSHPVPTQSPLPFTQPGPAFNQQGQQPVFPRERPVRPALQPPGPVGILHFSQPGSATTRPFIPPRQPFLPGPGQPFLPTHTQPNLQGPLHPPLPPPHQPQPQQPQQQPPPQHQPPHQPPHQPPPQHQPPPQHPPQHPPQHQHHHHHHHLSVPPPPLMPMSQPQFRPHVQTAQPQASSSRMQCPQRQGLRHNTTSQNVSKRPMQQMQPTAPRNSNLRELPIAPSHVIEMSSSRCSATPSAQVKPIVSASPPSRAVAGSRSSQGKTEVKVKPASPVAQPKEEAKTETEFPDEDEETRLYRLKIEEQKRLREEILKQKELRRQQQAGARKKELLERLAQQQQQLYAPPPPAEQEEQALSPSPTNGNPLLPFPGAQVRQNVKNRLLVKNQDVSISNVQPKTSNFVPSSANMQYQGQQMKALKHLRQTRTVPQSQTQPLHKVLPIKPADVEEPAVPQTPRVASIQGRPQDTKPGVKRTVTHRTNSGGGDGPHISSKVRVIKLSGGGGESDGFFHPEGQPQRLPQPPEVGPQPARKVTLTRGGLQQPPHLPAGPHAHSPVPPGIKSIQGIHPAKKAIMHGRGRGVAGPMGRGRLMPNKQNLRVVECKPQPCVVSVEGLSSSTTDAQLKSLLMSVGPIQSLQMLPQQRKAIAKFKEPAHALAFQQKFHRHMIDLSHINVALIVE
UniProt Q6JBY9, whole entry, looked up: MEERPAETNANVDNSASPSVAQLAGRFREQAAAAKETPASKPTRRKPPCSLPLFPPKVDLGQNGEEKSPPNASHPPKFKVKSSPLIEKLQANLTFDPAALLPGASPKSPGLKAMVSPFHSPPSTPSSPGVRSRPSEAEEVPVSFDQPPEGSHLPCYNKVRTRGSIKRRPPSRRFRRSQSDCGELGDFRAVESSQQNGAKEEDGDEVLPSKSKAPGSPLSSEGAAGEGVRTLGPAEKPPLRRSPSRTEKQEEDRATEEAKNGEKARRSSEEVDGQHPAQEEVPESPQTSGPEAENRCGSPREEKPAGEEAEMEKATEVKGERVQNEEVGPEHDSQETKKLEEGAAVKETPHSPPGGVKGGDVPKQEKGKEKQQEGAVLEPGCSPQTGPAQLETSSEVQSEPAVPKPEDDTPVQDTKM
UniProt Q96AA3: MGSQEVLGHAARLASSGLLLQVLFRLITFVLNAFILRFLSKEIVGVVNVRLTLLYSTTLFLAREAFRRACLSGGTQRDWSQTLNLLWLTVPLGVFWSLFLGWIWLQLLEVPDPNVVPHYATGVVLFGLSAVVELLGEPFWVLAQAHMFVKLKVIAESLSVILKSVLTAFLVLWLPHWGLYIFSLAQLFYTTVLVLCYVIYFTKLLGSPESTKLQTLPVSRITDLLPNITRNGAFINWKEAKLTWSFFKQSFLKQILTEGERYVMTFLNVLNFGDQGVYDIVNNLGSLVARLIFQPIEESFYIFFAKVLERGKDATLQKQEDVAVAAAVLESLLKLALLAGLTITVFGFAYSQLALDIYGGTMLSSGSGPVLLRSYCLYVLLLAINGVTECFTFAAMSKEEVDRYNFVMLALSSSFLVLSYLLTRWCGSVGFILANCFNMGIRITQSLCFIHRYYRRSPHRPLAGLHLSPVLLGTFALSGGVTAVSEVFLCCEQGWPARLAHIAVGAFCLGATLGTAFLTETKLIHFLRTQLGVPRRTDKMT
UniProt P98179: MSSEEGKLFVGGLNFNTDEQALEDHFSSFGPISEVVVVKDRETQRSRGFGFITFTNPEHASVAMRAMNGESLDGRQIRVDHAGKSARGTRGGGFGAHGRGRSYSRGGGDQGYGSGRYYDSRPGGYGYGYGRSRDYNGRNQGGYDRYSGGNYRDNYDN
UniProt Q96D15: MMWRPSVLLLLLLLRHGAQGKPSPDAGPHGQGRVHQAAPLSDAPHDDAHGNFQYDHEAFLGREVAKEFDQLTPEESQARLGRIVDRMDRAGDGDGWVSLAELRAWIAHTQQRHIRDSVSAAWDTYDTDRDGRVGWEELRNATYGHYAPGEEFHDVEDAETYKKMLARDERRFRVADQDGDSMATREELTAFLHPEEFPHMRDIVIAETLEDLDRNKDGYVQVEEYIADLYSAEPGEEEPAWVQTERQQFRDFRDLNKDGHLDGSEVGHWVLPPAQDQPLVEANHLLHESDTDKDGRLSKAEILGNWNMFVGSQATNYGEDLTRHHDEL
UniProt Q15283: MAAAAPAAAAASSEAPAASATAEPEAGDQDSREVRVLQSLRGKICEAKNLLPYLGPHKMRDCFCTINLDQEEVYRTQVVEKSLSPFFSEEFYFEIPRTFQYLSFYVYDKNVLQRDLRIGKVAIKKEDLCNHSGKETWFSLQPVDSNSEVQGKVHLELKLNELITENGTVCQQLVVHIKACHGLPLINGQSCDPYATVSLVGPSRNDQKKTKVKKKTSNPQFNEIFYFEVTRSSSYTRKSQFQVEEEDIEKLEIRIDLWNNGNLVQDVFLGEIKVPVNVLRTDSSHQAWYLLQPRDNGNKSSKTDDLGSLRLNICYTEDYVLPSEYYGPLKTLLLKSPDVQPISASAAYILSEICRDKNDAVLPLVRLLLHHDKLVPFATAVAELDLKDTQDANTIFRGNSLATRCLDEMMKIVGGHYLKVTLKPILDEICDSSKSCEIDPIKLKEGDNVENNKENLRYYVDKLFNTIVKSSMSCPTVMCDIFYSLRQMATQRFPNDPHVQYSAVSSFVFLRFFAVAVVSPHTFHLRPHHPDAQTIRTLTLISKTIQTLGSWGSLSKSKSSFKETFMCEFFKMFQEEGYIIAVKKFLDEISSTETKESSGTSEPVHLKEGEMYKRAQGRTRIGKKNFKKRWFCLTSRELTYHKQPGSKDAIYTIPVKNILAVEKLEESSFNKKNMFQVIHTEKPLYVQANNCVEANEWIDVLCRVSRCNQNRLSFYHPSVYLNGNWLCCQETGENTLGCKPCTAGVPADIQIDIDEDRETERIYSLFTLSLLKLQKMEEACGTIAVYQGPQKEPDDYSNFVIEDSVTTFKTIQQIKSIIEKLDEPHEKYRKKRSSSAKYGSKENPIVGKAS
UniProt Q8TAC1: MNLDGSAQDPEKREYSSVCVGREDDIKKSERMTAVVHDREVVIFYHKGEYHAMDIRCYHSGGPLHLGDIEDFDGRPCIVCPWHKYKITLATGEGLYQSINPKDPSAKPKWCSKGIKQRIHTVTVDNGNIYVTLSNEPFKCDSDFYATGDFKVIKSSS
UniProt Q9BTD8: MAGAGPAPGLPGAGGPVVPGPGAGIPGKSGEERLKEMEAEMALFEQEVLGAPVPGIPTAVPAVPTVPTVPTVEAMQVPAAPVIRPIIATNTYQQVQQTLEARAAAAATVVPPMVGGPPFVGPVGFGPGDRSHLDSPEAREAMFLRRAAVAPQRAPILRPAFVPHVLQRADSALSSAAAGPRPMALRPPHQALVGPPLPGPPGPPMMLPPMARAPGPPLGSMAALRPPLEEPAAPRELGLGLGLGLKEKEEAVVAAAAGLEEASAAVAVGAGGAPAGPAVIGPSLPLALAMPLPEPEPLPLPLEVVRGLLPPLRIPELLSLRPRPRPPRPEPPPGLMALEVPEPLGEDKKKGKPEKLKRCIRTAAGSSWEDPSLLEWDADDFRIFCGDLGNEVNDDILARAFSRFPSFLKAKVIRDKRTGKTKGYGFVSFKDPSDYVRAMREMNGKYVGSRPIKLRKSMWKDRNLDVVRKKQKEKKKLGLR
UniProt Q96HR9: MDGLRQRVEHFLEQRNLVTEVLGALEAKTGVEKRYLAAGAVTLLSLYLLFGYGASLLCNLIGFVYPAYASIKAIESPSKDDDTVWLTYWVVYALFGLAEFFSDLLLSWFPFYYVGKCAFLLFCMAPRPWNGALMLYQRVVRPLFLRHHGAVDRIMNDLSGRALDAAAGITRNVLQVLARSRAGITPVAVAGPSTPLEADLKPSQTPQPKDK
UniProt Q96I51, whole entry, looked up: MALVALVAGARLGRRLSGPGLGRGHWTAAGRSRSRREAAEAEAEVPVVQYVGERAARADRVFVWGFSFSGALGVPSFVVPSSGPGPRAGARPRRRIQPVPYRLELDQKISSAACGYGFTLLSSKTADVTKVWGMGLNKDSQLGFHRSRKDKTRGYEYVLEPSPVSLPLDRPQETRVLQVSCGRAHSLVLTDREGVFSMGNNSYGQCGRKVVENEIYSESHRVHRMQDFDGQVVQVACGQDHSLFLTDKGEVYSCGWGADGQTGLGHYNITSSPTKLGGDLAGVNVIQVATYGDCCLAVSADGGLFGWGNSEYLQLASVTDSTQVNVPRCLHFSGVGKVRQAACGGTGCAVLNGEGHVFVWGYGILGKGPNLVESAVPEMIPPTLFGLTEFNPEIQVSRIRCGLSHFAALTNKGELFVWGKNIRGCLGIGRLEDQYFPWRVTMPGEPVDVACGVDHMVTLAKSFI
UniProt Q8IZV5: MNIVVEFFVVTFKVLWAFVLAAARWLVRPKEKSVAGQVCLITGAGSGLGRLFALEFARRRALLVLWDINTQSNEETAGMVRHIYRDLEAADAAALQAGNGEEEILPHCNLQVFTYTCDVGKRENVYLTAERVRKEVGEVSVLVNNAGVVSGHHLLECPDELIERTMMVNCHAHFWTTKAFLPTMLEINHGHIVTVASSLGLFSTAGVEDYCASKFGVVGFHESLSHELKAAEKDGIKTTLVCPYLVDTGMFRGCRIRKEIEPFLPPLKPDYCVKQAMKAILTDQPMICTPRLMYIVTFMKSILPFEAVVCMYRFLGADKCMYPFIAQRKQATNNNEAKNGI
UniProt P53805: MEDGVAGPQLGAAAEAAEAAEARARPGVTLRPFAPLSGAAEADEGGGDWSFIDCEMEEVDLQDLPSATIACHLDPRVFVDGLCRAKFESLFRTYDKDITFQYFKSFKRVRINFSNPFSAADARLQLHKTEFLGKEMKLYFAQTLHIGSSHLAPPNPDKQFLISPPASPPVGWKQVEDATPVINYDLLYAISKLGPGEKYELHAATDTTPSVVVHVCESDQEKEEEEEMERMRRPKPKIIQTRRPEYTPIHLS
UniProt O43665: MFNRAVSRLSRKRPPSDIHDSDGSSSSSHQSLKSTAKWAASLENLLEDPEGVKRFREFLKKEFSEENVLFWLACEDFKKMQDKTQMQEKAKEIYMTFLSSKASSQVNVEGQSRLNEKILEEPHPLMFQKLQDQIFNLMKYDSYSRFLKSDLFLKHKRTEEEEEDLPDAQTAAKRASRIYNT
UniProt P48382: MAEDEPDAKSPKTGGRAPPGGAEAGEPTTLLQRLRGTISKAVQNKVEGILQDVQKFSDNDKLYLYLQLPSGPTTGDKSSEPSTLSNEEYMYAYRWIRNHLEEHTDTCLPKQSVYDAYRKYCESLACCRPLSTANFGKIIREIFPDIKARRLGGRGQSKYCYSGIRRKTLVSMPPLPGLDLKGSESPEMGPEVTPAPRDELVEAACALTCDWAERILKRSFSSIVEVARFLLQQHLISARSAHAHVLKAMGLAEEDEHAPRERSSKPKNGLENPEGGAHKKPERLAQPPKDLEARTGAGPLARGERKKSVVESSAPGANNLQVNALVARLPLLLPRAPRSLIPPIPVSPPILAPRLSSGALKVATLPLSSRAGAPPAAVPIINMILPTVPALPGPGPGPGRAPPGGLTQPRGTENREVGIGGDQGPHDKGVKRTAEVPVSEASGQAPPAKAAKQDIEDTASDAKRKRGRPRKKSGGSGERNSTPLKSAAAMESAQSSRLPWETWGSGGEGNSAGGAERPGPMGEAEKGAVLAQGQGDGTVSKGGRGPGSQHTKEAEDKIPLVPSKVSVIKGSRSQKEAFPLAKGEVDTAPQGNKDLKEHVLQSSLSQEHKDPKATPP

compound: COC(=O)N[C@@H](C)CNc1nccc(-c2cn(C(C)C)nc2-c2cc(Cl)cc(NS(C)(=O)=O)c2F)n1 [encorafenib]; assay: log2 fold change, soluble protein after heating vs DMSO (PISA); higher = thermal stabilisation; K562 lysate, 10 uM; active = over 0.2 and 3.5 SD of the protein, either way, in both replicates (recomputed)
Method in brief: (§1)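 Values give the log-two fold change in thermal stability against solvent controls, from duplicates. Crude K562 extract at 1 mg/mL protein, made by dounce homogenisation in PBS pH 7.4 with 1 mM MgCl2, was treated with 10 μM compound for 30 min. After 3 min heating across 48°C-58°C, aliquots were pooled, adjusted to 0.5% NP-40 at 4°C and centrifuged at 21,000xg for 90 min. The supernatant was measured by TMTpro 16plex LC-MS/MS with channel sums equalised.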

log2 fold change, inactive:
RBL1 (UniProt P28749) 0.042
RBBP4 (UniProt Q09028) -0.008
RCOR1 (UniProt Q9UKL0) 0.01
RBM33 (UniProt Q96EV2) 0.021
RFX1 (UniProt P22670) 0.011
RBM28 (UniProt Q9NW13) 0.018
RAVER1 (UniProt E9PAU2) 0.099
RCSD1 (UniProt Q6JBY9) -0.009
RBM39 (UniProt Q14498) 0.045
RFT1 (UniProt Q96AA3) 0.093
RENBP (UniProt P51606) 0.022
RECQL5 (UniProt O94762) 0.225
RELN (UniProt P78509) -0.009
RFXAP (UniProt O00287) 0.011
RASA3 (UniProt Q14644) -0.005
REPS1 (UniProt Q96D71) 0.007
RBM3 (UniProt P98179) 0
RCN3 (UniProt Q96D15) -0.002
RASA2 (UniProt Q15283) -0.059
RFESD isoform 2 (UniProt Q8TAC1) -0.01
RBM42 (UniProt Q9BTD8) 0.098
RASA1 (UniProt P20936) 0.033
RBMX (UniProt P38159) 0.021
RCOR3 isoform 3 (UniProt Q9P2K3) 0.012
REEP6 (UniProt Q96HR9) 0.076
RCC1L (UniProt Q96I51) -0.008
RDH10 (UniProt Q8IZV5) -0.001
RERE (UniProt Q9P2R6) 0.009
RCAN1 (UniProt P53805) 0.065
RARS2 (UniProt Q5T160) 0.111
RGS10 (UniProt O43665) -0.004
RFX5 (UniProt P48382) 0.041

compound: COC(=O)[C@H](CCSC)NC(=O)C1=C(C=C(C=C1)NC[C@H](CS)N)C2=CC=CC=C2; assay: as above
Method in brief: as §1

log2 fold change, inactive:
RBL1 (UniProt P28749) 0.095
RBBP4 (UniProt Q09028) -0.029
RCOR1 (UniProt Q9UKL0) 0.115
RBM33 (UniProt Q96EV2) -0.043
RFX1 (UniProt P22670) -0.054
RBM28 (UniProt Q9NW13) 0.01
RAVER1 (UniProt E9PAU2) 0.09
RCSD1 (UniProt Q6JBY9) -0.016
RBM39 (UniProt Q14498) 0.013
RFT1 (UniProt Q96AA3) -0.066
RENBP (UniProt P51606) -0.031
RECQL5 (UniProt O94762) 0.016
RELN (UniProt P78509) -0.092
RFXAP (UniProt O00287) -0.013
RASA3 (UniProt Q14644) 0.082
REPS1 (UniProt Q96D71) 0.106
RBM3 (UniProt P98179) -0.014
RCN3 (UniProt Q96D15) 0.046
RASA2 (UniProt Q15283) 0.113
RFESD isoform 2 (UniProt Q8TAC1) -0.049
RASA1 (UniProt P20936) 0.006
RBMX (UniProt P38159) -0.068
RCOR3 isoform 3 (UniProt Q9P2K3) 0.088
REEP6 (UniProt Q96HR9) -0.025
RCC1L (UniProt Q96I51) -0.013
RERE (UniProt Q9P2R6) 0.065
RCAN1 (UniProt P53805) 0.035
RARS2 (UniProt Q5T160) -0.157
RGS10 (UniProt O43665) -0.069
RFX5 (UniProt P48382) 0.004

log2 fold change, active:
RBM42 (UniProt Q9BTD8) -0.28
RDH10 (UniProt Q8IZV5) 0.346

compound: COc1cc(Nc2ncc3c(n2)-c2ccc(Cl)cc2C(c2c(F)cccc2OC)=NC3)ccc1C(=O)O [alisertib]; assay: as above
Method in brief: as §1

log2 fold change, inactive:
RBL1 (UniProt P28749) -0.131
RBBP4 (UniProt Q09028) -0.009
RCOR1 (UniProt Q9UKL0) 0.023
RBM33 (UniProt Q96EV2) 0.011
RFX1 (UniProt P22670) -0.022
RBM28 (UniProt Q9NW13) 0.009
RAVER1 (UniProt E9PAU2) 0.075
RCSD1 (UniProt Q6JBY9) 0.001
RBM39 (UniProt Q14498) 0.023
RFT1 (UniProt Q96AA3) -0.025
RENBP (UniProt P51606) 0.005
RECQL5 (UniProt O94762) -0.003
RELN (UniProt P78509) -0.014
RFXAP (UniProt O00287) 0.071
RASA3 (UniProt Q14644) -0.006
REPS1 (UniProt Q96D71) -0.012
RBM3 (UniProt P98179) 0.105
RCN3 (UniProt Q96D15) -0.059
RASA2 (UniProt Q15283) -0.003
RFESD isoform 2 (UniProt Q8TAC1) -0.04
RBM42 (UniProt Q9BTD8) 0.043
RASA1 (UniProt P20936) -0.026
RBMX (UniProt P38159) 0.002
RCOR3 isoform 3 (UniProt Q9P2K3) 0.003
REEP6 (UniProt Q96HR9) 0.032
RCC1L (UniProt Q96I51) -0.031
RDH10 (UniProt Q8IZV5) 0.037
RERE (UniProt Q9P2R6) -0.019
RCAN1 (UniProt P53805) -0.02
RARS2 (UniProt Q5T160) -0.017
RGS10 (UniProt O43665) -0.01
RFX5 (UniProt P48382) 0.045
